# Assay results from the supplement of paper PMC4604168 (melanoma cell lines).
# This is one part of the list. Single values are uncertain, as repeats are few or missing.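 Cells were imaged in 1,536-well plates, and nuclei stained with an antibody against cleaved PARP were counted against all DNA-stained nuclei to give the apoptosis fraction. Screening doses were chosen to leave most cells alive, and resting and induced cleaved-PARP levels differ strongly between cell lines.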
# Tests used:
# Experiment in all cases: cleaved PARP positive nuclei fraction relative to DMSO control; melanoma cells; higher = more apoptosis
# Settings in all cases: library dose: low library concentration; 72 h
# [1] = system: 501Mel
# [2] = system: A101D
# [3] = system: A2058
# [4] = system: A375
# [5] = system: C32
# [6] = system: CBRC008 (line from a melanoma biopsy)
# [7] = system: CBRC014 (line from a melanoma biopsy)
# [8] = system: CBRC016 (line from a melanoma biopsy)
# [9] = system: CBRC017 (line from a melanoma biopsy)
# [10] = system: CBRC034 (line from a melanoma biopsy)
# [11] = system: COLO792
# [12] = system: COLO800
# [13] = system: COLO829
# [14] = system: G361
# [15] = system: IPC-298
# [16] = system: IST-MEL1
# [17] = system: LB2518-MEL
# [18] = system: LOXIMVI
# [19] = system: MEL-HO
Structure (SMILES),cleaved PARP positive nuclei fraction [1],cleaved PARP positive nuclei fraction [2],cleaved PARP positive nuclei fraction [3],cleaved PARP positive nuclei fraction [4],cleaved PARP positive nuclei fraction [5],cleaved PARP positive nuclei fraction [6],cleaved PARP positive nuclei fraction [7],cleaved PARP positive nuclei fraction [8],cleaved PARP positive nuclei fraction [9],cleaved PARP positive nuclei fraction [10],cleaved PARP positive nuclei fraction [11],cleaved PARP positive nuclei fraction [12],cleaved PARP positive nuclei fraction [13],cleaved PARP positive nuclei fraction [14],cleaved PARP positive nuclei fraction [15],cleaved PARP positive nuclei fraction [16],cleaved PARP positive nuclei fraction [17],cleaved PARP positive nuclei fraction [18],cleaved PARP positive nuclei fraction [19]
"Cn1cnc2c(F)c(Nc3ccc(Br)cc3Cl)c(C(=O)NOCCO)cc21 [selumetinib] + COc1ccc(Cl)c(Nc2nc3ccccc3nc2NS(=O)(=O)c2cccc(NC(=O)C(C)(C)N)c2)c1 [XL147] (first compound 0.015 µM, partner dose 0.8 µM)",485%,99.1%,252%,148%,112%,135%,168%,185%,171%,248%,114%,137%,74.1%,80.5%,134%,86.1%,92.7%,34.5%,148%
"COc1ccc(C2=N[C@@H](c3ccc(Cl)cc3)[C@@H](c3ccc(Cl)cc3)N2C(=O)N2CCNC(=O)C2)c(OC(C)C)c1 [Nutlin-3] + Nc1ncn([C@H]2C[C@H](O)[C@@H](CO)O2)c(=O)n1 [decitabine] (first compound 0.1 µM, partner dose 0.1 µM)",91.3%,50.2%,251%,48.7%,85.1%,78.1%,98%,124%,172%,77.8%,43.5%,143%,101%,186%,249%,73.9%,142%,78.9%,238%
"Cn1sc(=O)n(Cc2ccccc2)c1=O + CCCS(=O)(=O)Nc1ccc(F)c(C(=O)c2c[nH]c3ncc(Cl)cc23)c1F [PLX4720] (first compound 0.4 µM, partner dose 0.08 µM)",146%,309%,47.2%,82.3%,113%,75.2%,104%,112%,151%,32.5%,94.6%,61.2%,84.8%,123%,58.2%,87.1%,43.7%,43.3%,117%
"Cn1cnc2c(F)c(Nc3ccc(Br)cc3Cl)c(C(=O)NOCCO)cc21 [selumetinib] + OCc1c[nH]c2ccccc12 [Indole-3-carbinol] (first compound 0.015 µM, partner dose 0.8 µM)",884%,64.4%,129%,103%,90.8%,122%,81.9%,222%,140%,292%,117%,157%,68.3%,122%,197%,67.4%,110%,34.2%,141%
"C[C@@H](N)c1ccc(C(=O)Nc2ccnc3[nH]ccc23)cc1 + Cn1c(=O)n(-c2ccc(C(C)(C)C#N)cc2)c2c3cc(-c4cnc5ccccc5c4)ccc3ncc21 [NVP-BEZ235] (first compound 0.4 µM, partner dose 0.004 µM)",98.8%,55.1%,141%,223%,80.5%,289%,95%,74.1%,155%,128%,140%,100%,118%,134%,87.9%,138%,164%,145%,93.6%
"CS(=O)(=O)c1ccc(C(=O)Nc2ccc(Cl)c(-c3ccccn3)c2)c(Cl)c1 [vismodegib] + Nc1nc(F)nc2c1ncn2[C@@H]1O[C@H](CO)[C@@H](O)[C@@H]1O [fludarabine] (first compound 1 µM, partner dose 0.2 µM)",15000%,43.8%,85.3%,5510%,144%,67.2%,113%,92.3%,97.9%,35.9%,42.5%,45.2%,70.3%,78.7%,49%,91.9%,283%,192%,59.9%
"COc1ccc(C2=N[C@@H](c3ccc(Cl)cc3)[C@@H](c3ccc(Cl)cc3)N2C(=O)N2CCNC(=O)C2)c(OC(C)C)c1 [Nutlin-3] + Cn1nnc2c(C(N)=O)ncn2c1=O [temozolomide] (first compound 0.1 µM, partner dose 2 µM)",170%,72%,68.6%,143%,85.7%,39%,97.6%,23.4%,178%,61.2%,90.4%,43.7%,105%,203%,59.3%,294%,32.5%,107%,99.6%
"NC(=O)c1ccc(N(C(N)=O)c2c(F)cccc2F)nc1-c1ccc(F)cc1F + CS(=O)(=O)CCNCc1ccc(-c2ccc3ncnc(Nc4ccc(OCc5cccc(F)c5)c(Cl)c4)c3c2)o1 [lapatinib] (first compound 0.4 µM, partner dose 0.8 µM)",56.7%,96.4%,159%,164%,73.9%,71.8%,93.6%,116%,125%,81.5%,148%,110%,115%,77.5%,42.2%,61.2%,84.5%,144%,151%
"C[C@]1(O)C[C@@H](c2nc(-c3ccc4ccc(-c5ccccc5)nc4c3)c3c(N)nccn32)C1 + Nc1cccc2c1CN(C1CCC(=O)NC1=O)C2=O [lenalidomide] (first compound 0.4 µM, partner dose 1 µM)",95%,133%,230%,317%,188%,51.3%,114%,47.7%,78.8%,67.2%,110%,30.2%,144%,145%,92.9%,454%,107%,28.3%,51%
"C[C@@H](N)c1ccc(C(=O)Nc2ccnc3[nH]ccc23)cc1 + COc1ccc(Cl)c(Nc2nc3ccccc3nc2NS(=O)(=O)c2cccc(NC(=O)C(C)(C)N)c2)c1 [XL147] (first compound 0.4 µM, partner dose 0.8 µM)",67.6%,102%,47.5%,125%,84.2%,89.8%,197%,113%,186%,84.8%,149%,85.6%,74.2%,151%,87.4%,150%,85.4%,182%,87.3%
"NC(=O)c1ccc(N(C(N)=O)c2c(F)cccc2F)nc1-c1ccc(F)cc1F + O=C(O)[C@@H]1[O][Sb](=[O])([O][Sb]2(=[O])[O][C@H]([C@H](O)CO)[C@H](O)[C@H](C(=O)O)[O]2)[O][C@H]([C@H](O)CO)[C@@H]1O [stibogluconate] (first compound 0.4 µM, partner dose 2 µM)",105%,83.8%,39.9%,55.7%,68.6%,51.9%,92.5%,87.3%,109%,115%,131%,102%,55.5%,136%,132%,268%,73.6%,137%,41.2%
"CCCCCCCCc1ccc(CCC(N)(CO)CO)cc1 [fingolimod] + C#Cc1cccc(Nc2ncnc3cc(OCCOC)c(OCCOC)cc23)c1 [erlotinib] (first compound 2 µM, partner dose 0.8 µM)",91.1%,1000%,92.6%,666%,72%,61.8%,102%,89.1%,113%,117%,114%,116%,70%,160%,145%,132%,103%,147%,73.9%
"NC(=O)c1ccc(N(C(N)=O)c2c(F)cccc2F)nc1-c1ccc(F)cc1F + C[C@]1(O)C[C@@H](c2nc(-c3ccc4ccc(-c5ccccc5)nc4c3)c3c(N)nccn32)C1 [OSI906] (first compound 0.4 µM, partner dose 0.4 µM)",200%,138%,221%,191%,80.2%,156%,92.4%,140%,123%,60.5%,61.1%,186%,30.7%,48.7%,187%,133%,127%,150%,41.6%
"CS(=O)(=O)c1ccc(C(=O)Nc2ccc(Cl)c(-c3ccccn3)c2)c(Cl)c1 [vismodegib] + C[C@]1(c2nc3c(C(N)=O)cccc3[nH]2)CCCN1 [Veliparib] (first compound 1 µM, partner dose 1.4 µM)",84.2%,160%,63.9%,59.1%,79.7%,42.5%,97.4%,111%,91%,30.1%,91.8%,114%,98.7%,114%,208%,61.8%,61.6%,57.4%,81.5%
"CC(=O)O[C@@]12CO[C@@H]1C[C@H](O)[C@@]1(C)C(=O)[C@H](O)C3=C(C)[C@@H](OC(=O)[C@H](O)[C@@H](NC(=O)OC(C)(C)C)c4ccccc4)C[C@@](O)([C@@H](OC(=O)c4ccccc4)[C@H]21)C3(C)C [Docetaxel] + C[C@@H](Oc1cc(-c2cnn(C3CCNCC3)c2)cnc1N)c1c(Cl)ccc(F)c1Cl [Crizotinib] (first compound 0.0001 µM, partner dose 0.2 µM)",88.4%,91.4%,2540%,2110%,223%,725%,192%,371%,135%,192%,242%,510%,185%,361%,190%,225%,166%,119%,59.6%
"CC1(C)CCC(c2ccc(Cl)cc2)=C(CN2CCN(c3ccc(C(=O)NS(=O)(=O)c4ccc(N[C@H](CCN5CCOCC5)CSc5ccccc5)c(S(=O)(=O)C(F)(F)F)c4)cc3)CC2)C1 + CN(c1ncccc1CNc1nc(Nc2ccc3c(c2)CC(=O)N3)ncc1C(F)(F)F)S(C)(=O)=O [PF562271] (first compound 0.4 µM, partner dose 0.08 µM)",76.7%,173%,93.2%,594%,1080%,340%,716%,299%,305%,298%,662%,256%,82.4%,194%,171%,56.5%,347%,205%,170%

# An excerpt from above, showing only cleaved PARP positive nuclei fraction [13]:
Structure (SMILES)	cleaved PARP positive nuclei fraction [13]
CS(=O)(=O)c1ccc(C(=O)Nc2ccc(Cl)c(-c3ccccn3)c2)c(Cl)c1 [vismodegib] + Nc1nc(F)nc2c1ncn2[C@@H]1O[C@H](CO)[C@@H](O)[C@@H]1O [fludarabine] (first compound 1 µM, partner dose 0.2 µM)	70.3%
COc1ccc(C2=N[C@@H](c3ccc(Cl)cc3)[C@@H](c3ccc(Cl)cc3)N2C(=O)N2CCNC(=O)C2)c(OC(C)C)c1 [Nutlin-3] + Cn1nnc2c(C(N)=O)ncn2c1=O [temozolomide] (first compound 0.1 µM, partner dose 2 µM)	105%
